Measurements from patent US20240166755A1 (UNIVERSITY OF SOUTHERN CALIFORNIA, published 2024).

Target: T1, MPL-ECD-GGSG-Nluc-AcV5 (human)
T1 construct: the entry includes the native signal peptide; also called MPL-GGSG-NLuc-AcV5; MPL-GGSG-NLuc AcV5
T1 chain: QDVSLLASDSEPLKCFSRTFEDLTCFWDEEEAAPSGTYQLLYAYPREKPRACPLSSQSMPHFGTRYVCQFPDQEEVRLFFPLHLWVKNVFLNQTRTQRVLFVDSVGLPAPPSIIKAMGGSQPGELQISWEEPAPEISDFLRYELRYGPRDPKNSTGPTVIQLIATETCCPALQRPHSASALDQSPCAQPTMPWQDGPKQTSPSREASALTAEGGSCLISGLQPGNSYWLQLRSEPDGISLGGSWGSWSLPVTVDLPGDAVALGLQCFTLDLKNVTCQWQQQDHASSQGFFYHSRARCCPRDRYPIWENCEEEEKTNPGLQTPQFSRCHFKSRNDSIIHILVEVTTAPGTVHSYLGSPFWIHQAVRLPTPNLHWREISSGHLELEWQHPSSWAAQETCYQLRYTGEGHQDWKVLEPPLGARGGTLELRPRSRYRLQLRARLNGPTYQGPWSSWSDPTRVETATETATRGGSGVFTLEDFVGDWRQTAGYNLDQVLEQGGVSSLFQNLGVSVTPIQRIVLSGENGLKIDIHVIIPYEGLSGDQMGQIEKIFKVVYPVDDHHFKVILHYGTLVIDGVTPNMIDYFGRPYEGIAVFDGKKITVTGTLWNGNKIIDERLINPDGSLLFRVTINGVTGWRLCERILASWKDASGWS
Experiment: NLuc assay: CAR on transfected 293FT cells incubated with MPL-ECD-GGSG-NLuc-AcV5 supernatant

B1: CD8SP-FMC63-(vL-vH)-Myc-BBz-T2A-PAC(112014-A13) (scFv)
chain: DIQMTQTTSSLSASLGDRVTISCRASQDISKYLNWYQQKPDGTVKLLIYHTSRLHSGVPSRFSGSGSGTDYSLTISNLEQEDIATYFCQQGNTLPYTFGGGTKLEITGGGGSGGGGSGGGGSEVKLQESGPGLVAPSQSLSVTCTVSGVSLPDYGVSWIRQPPRKGLEWLGVIWGSETTYYNSALKSRLTIIKDNSKSQVFLKMNSLQTDDTAIYYCAKHYYYGGSYAMDYWGQGTSVTVSSRVEQKLISEEDLAKPTTTPAPRPPTPAPTIASQPLSLRPEACRPAAGGAVHTRGLDFACDIYIWAPLAGTCGVLLLSLVITLYCKRGRKKLLYIFKQPFMRPVQTTQEEDGCSCRFPEEEEGGCELRVKFSRSADAPAYQQGQNQLYNELNLGRREEYDVLDKRRGRDPEMGGKPRRKNPQEGLYNELQKDKMAEAYSEIGMKGERRRGKGHDGLYQGLSTATKDTYDALHMQALPPRSSGSGEGRGSLLTCGDVEENPG
notes: the entry is the whole encoded polyprotein (CD8 signal peptide, scFv, Myc, CD8 hinge/TM, 41BB, CD3z, T2A, PAC)
binding result: no binding
